The values below come from paper PMC4259311.

The exact form of at least one protein or probe is not confirmed. A negative result means that nothing was seen under these conditions.

In this data set the test system is FEMU2 3C2H2 zinc finger domain (GST-3C2H2) (Chlamydomonas reinhardtii). Kind of data set: EMSA. Particulars: EMSA kit E33075 (Invitrogen) DNA-binding buffer (composition, salt and pH not stated), 22 C, 20 min, 8% native PAGE, SYBR Green EMSA stain, recombinant protein, protein details: GST (pGEX-6P-1), label: none (SYBR Green stain). For orientation: In EMSA bound probe runs differently from free probe, usually more slowly.

As to “CCGGGTCCGGGTCCGGGTCCGGGT (double strand) [Mu1 (CCGGGT tetramer)]”, the binding result is listed as “binds”. Same read-out and setting: for “TTAAGTTTAAGTTTAAGTTTAAGT (double strand) [Mu2 (TTAAGT tetramer)]” the value was “no binding”. On to “TTGAATTTGAATTTGAATTTGAAT (double strand) [Mu4 (TTGAAT tetramer)]”, for which the binding result is listed as “no binding”. Regarding “TTGGACTTGGACTTGGACTTGGAC (double strand) [Mu3 (TTGGAC tetramer)]”, the binding result was “binds”. Consider “TTGGGTTTGGGTTTGGGTTTGGGT (double strand) [WT (TTGGGT tetramer)]”, for which the binding result (10-40 ug protein) was “binds”.
